Laboratory results reported in the supplement of paper PMC4604168 (melanoma cell lines).
The other results are listed elsewhere or left out. Many values rest on one well or one pass, so single values are uncertain.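 The apoptosis fraction was the count of cleaved-PARP antibody-stained nuclei relative to all DNA-stained nuclei, imaged in 1,536-well plates. Screening doses were set so most cells survived, and baseline and induced cleaved-PARP levels vary greatly across cell lines.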

How the values were obtained:
Assay in all cases: cleaved PARP positive nuclei fraction relative to DMSO control; melanoma cells; higher = more apoptosis
Conditions in all cases: library dose: low library concentration; 72 h
MZ2-MEL = system: MZ2-MEL
MeWo = system: MeWo
RPMI7951 = system: RPMI7951
RVH-421 = system: RVH-421
SkMel28 = system: SkMel28
SkMel2 = system: SkMel2
SkMel30 = system: SkMel30
UACC62 = system: UACC62

SMILES	cleaved PARP positive nuclei fraction (MZ2-MEL) [%]	cleaved PARP positive nuclei fraction (MeWo) [%]	cleaved PARP positive nuclei fraction (RPMI7951) [%]	cleaved PARP positive nuclei fraction (RVH-421) [%]	cleaved PARP positive nuclei fraction (SkMel28) [%]	cleaved PARP positive nuclei fraction (SkMel2) [%]	cleaved PARP positive nuclei fraction (SkMel30) [%]	cleaved PARP positive nuclei fraction (UACC62) [%]
Cn1sc(=O)n(Cc2ccccc2)c1=O + C[C@]1(c2nc3c(C(N)=O)cccc3[nH]2)CCCN1 [Veliparib] (first compound 0.4 µM, partner dose 1.4 µM)	40.4	138	54.2	88.6	89.7	106	144	52.5
NC1(c2ccc(-c3nc4ccn5c(=O)[nH]nc5c4cc3-c3ccccc3)cc2)CCC1 + C[C@]1(c2nc3c(C(N)=O)cccc3[nH]2)CCCN1 [Veliparib] (first compound 0.4 µM, partner dose 1.4 µM)	28.7	164	215	108	154	41.1	91	54.9
NC1(c2ccc(-c3nc4ccn5c(=O)[nH]nc5c4cc3-c3ccccc3)cc2)CCC1 + Cc1nc(Nc2ncc(C(=O)Nc3c(C)cccc3Cl)s2)cc(N2CCN(CCO)CC2)n1 [dasatanib] (first compound 0.4 µM, partner dose 0.004 µM)	84.7	50.9	201	67.5	114	77.8	341	194
CC1(C)CCC(c2ccc(Cl)cc2)=C(CN2CCN(c3ccc(C(=O)NS(=O)(=O)c4ccc(N[C@H](CCN5CCOCC5)CSc5ccccc5)c(S(=O)(=O)C(F)(F)F)c4)cc3)CC2)C1 + CCN(CC)CCNC(=O)c1c(C)[nH]c(/C=C2\C(=O)Nc3ccc(F)cc32)c1C [sunitinib] (first compound 0.4 µM, partner dose 0.4 µM)	202	554	181	164	179	142	179	147
CC(=O)O[C@@]12CO[C@@H]1C[C@H](O)[C@@]1(C)C(=O)[C@H](O)C3=C(C)[C@@H](OC(=O)[C@H](O)[C@@H](NC(=O)OC(C)(C)C)c4ccccc4)C[C@@](O)([C@@H](OC(=O)c4ccccc4)[C@H]21)C3(C)C [Docetaxel] + CNC(=O)c1cc(Oc2ccc(NC(=O)Nc3ccc(Cl)c(C(F)(F)F)c3)cc2)ccn1 [sorafenib] (first compound 0.0001 µM, partner dose 0.4 µM)	1340	289	163	60	337	1310	500	792
CS(=O)(=O)c1ccc(C(=O)Nc2ccc(Cl)c(-c3ccccn3)c2)c(Cl)c1 [vismodegib] + CN1CCN(c2ccc3nc(-c4c(N)c5c(F)cccc5[nH]c4=O)[nH]c3c2)CC1 [Dovitinib] (first compound 1 µM, partner dose 0.1 µM)	173	134	100	45.9	142	69.6	64	124
Cn1sc(=O)n(Cc2ccccc2)c1=O + NC1(c2ccc(-c3nc4ccn5c(=O)[nH]nc5c4cc3-c3ccccc3)cc2)CCC1 [MK2206] (first compound 0.4 µM, partner dose 0.4 µM)	81.1	54.7	47	49.9	78.9	46.1	114	182
CC(=O)O[C@@]12CO[C@@H]1C[C@H](O)[C@@]1(C)C(=O)[C@H](O)C3=C(C)[C@@H](OC(=O)[C@H](O)[C@@H](NC(=O)OC(C)(C)C)c4ccccc4)C[C@@](O)([C@@H](OC(=O)c4ccccc4)[C@H]21)C3(C)C [Docetaxel] + C#Cc1cccc(Nc2ncnc3cc(OCCOC)c(OCCOC)cc23)c1 [erlotinib] (first compound 0.0001 µM, partner dose 0.8 µM)	524	1010	196	119	142	824	599	346
COc1ccc(C2=N[C@@H](c3ccc(Cl)cc3)[C@@H](c3ccc(Cl)cc3)N2C(=O)N2CCNC(=O)C2)c(OC(C)C)c1 [Nutlin-3] + Clc1ccc(Nc2nnc(Cc3ccncc3)c3ccccc23)cc1 [vatalanib] (first compound 0.1 µM, partner dose 2 µM)	147	142	200	78.9	103	56.6	460	96.4
CS(=O)(=O)c1ccc(C(=O)Nc2ccc(Cl)c(-c3ccccn3)c2)c(Cl)c1 [vismodegib] + CC(=O)O[C@@]12CO[C@@H]1C[C@H](O)[C@@]1(C)C(=O)[C@H](O)C3=C(C)[C@@H](OC(=O)[C@H](O)[C@@H](NC(=O)OC(C)(C)C)c4ccccc4)C[C@@](O)([C@@H](OC(=O)c4ccccc4)[C@H]21)C3(C)C [Docetaxel] (first compound 1 µM, partner dose 0.0001 µM)	510	798	273	138	295	586	176	404

2 entries from above, comma-delimited:
SMILES,cleaved PARP positive nuclei fraction (MZ2-MEL) [%],cleaved PARP positive nuclei fraction (MeWo) [%],cleaved PARP positive nuclei fraction (RPMI7951) [%],cleaved PARP positive nuclei fraction (RVH-421) [%],cleaved PARP positive nuclei fraction (SkMel28) [%],cleaved PARP positive nuclei fraction (SkMel2) [%],cleaved PARP positive nuclei fraction (SkMel30) [%],cleaved PARP positive nuclei fraction (UACC62) [%]
"CS(=O)(=O)c1ccc(C(=O)Nc2ccc(Cl)c(-c3ccccn3)c2)c(Cl)c1 [vismodegib] + CN1CCN(c2ccc3nc(-c4c(N)c5c(F)cccc5[nH]c4=O)[nH]c3c2)CC1 [Dovitinib] (first compound 1 µM, partner dose 0.1 µM)",173,134,100,45.9,142,69.6,64,124
"Cn1sc(=O)n(Cc2ccccc2)c1=O + NC1(c2ccc(-c3nc4ccn5c(=O)[nH]nc5c4cc3-c3ccccc3)cc2)CCC1 [MK2206] (first compound 0.4 µM, partner dose 0.4 µM)",81.1,54.7,47,49.9,78.9,46.1,114,182
